# Source: PubChem BioAssay (NCATS)
# Where “and” joins values, the source holds several entries; their conditions need not be identical. Identical values can stand only once. The inconclusive results got no clear call from the source; some entries with a clear call stand among them for comparison. Where the call is inconclusive, the potency comes from a doubtful curve fit. Calls of active or inactive are those of the source. Calls come from the whole dose curve; as a rule, active = well fitted curve in the direction sought with a large enough effect; inconclusive = small, poorly fitted or top-dose-only effect, or another doubt; inactive = no such curve, though single readings can be large; an effect the other way counts as inactive or inconclusive.
# Test: qHTS of pediatric cancer cell lines to identify multiple opportunities for drug repurposing: Confirmatory screen for Saos-2 cells (AID 1347127); note: nearly all actives have a fitted effect of over 60% in size
# Settings: Saos-2 osteosarcoma cell viability; series mostly up to 45.9 µM
# Summary of the method: (§1)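 Viability after 48 h compound treatment at 37C, 500-1,000 cells/well, read as ATP luminescence with CellTiter-Glo. Primary screens used 11-point (MIPE, 0.78 nM-46 µM) or 8-point (NPC, 0.59 nM-46 µM) final concentrations; follow-up screens used 11-point dilutions.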
# Potency is the fitted concentration of half-maximal effect.
row,Compound,Potency
1,COc1ccc2c(c1OC)C(=O)OC2[C@H]1c2c(cc3c(c2OC)OCO3)CCN1C (some centres undefined),inactive
2,COc1cc2c(cc1OC)[C@@H]1C(=O)c3ccc4c(c3O[C@@H]1CO2)C=CC(C)(C)O4,active: 3.69 µM
3,CC(C)(C)c1cc(NC(=O)Nc2ccc(-c3cn4c(n3)sc3cc(OCCN5CCOCC5)ccc34)cc2)no1,"inconclusive: 23.3 µM [cytotoxic, single point]"
4,Nc1nc(F)nc2c1ncn2[C@@H]1O[C@H](CO)[C@@H](O)[C@@H]1O,active: 928 nM and active: 1.17 µM
5,COc1ccc(-c2ccc3ncc4c(c3c2)n(-c2ccc(N3CCNCC3)c(C(F)(F)F)c2)c(=O)n4C)cn1,"inconclusive: 0.329 µM [cytotoxic, full curve, poor fit]"
6,Cc1[nH]nc2ccc(-c3cncc(OC[C@@H](N)Cc4ccccc4)c3)cc12,active: 4.65 µM
7,O=C(CC12CC3CC(CC(C3)C1)C2)Nc1cccc2nc(NCCNCCO)ccc12,"inconclusive: 20.8 µM [cytotoxic, single point]"
8,COc1ccc(-c2ccc3c(N4CCOC[C@H]4C)nc(N4CCOC[C@H]4C)nc3n2)cc1CO,active: 0.928 µM
9,CNC(=O)c1cccc(-c2ccc3c(N4CCOC[C@H]4C)nc(N4CCOC[C@H]4C)nc3n2)c1,"inconclusive: 1.65 µM [cytotoxic, full curve]"
10,C[C@H](c1ccc(F)cc1CCCC(=O)O)N(c1cc(F)ccc1F)S(=O)(=O)c1ccc(Cl)cc1,inactive
11,O=c1[nH]nc(OCCCc2ccc(Cl)cc2)c(NCc2cccnc2)c1Br,inactive
12,Cc1cnc(Nc2ccc(N3CCN(C)CC3)cc2)nc1Nc1cccc(S(=O)(=O)NC(C)(C)C)c1,active: 3.69 µM
13,FC(F)(F)c1ccc(C=Cc2nc(COc3ccc(CCCCn4ccnn4)cc3)co2)cc1,"inconclusive: 4.14 µM [cytotoxic, full curve, poor fit]"
14,COc1cc2c(cc1OC)[C@@H]1Cc3ccc(OC)c(OC)c3CN1CC2,"inconclusive: 0.928 µM [cytotoxic, full curve, poor fit]"
15,COc1ccc(C(C)=O)c(O)c1,"inconclusive: 0.0083 µM [rising, full curve, poor fit]"
16,O=S(=O)(O)CCS,"inconclusive: 32.9 µM [cytotoxic, single point]"
17,COc1cc(CNC(=O)CCCCC=CC(C)C)ccc1O,inactive
18,CS(=O)(=O)Nc1ccc([N+](=O)[O-])cc1Oc1ccccc1,inactive

# Test: qHTS of pediatric cancer cell lines to identify multiple opportunities for drug repurposing: Confirmatory screen for OHS-50 cells (AID 1347128);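 note: compound exposure lasted 48 h at 37 degrees C; nearly all actives have a fitted effect of over 55% in size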
# Settings: OHS-50 osteosarcoma cells viability; series mostly up to 45.9 µM
# Summary of the method: as §1
row,Compound,Potency
1,Nc1nc(F)nc2c1ncn2[C@@H]1O[C@H](CO)[C@@H](O)[C@@H]1O,"inconclusive: 10.4 µM [cytotoxic, full curve] and active: 414 nM"
2,O=C(CC12CC3CC(CC(C3)C1)C2)Nc1cccc2nc(NCCNCCO)ccc12,"inconclusive: 26.1 µM [cytotoxic, single point]"
3,N#Cc1c(NC(=O)c2cccc3ccccc23)sc2c1CCCC2,"inconclusive: 0.737 µM [cytotoxic, full curve]"
4,COc1ccc(-c2ccc3c(N4CCOC[C@H]4C)nc(N4CCOC[C@H]4C)nc3n2)cc1CO,active: 2.08 µM
5,Nc1ncn([C@H]2C[C@H](O)[C@@H](CO)O2)c(=O)n1,inactive
6,C[C@H](c1ccc(F)cc1CCCC(=O)O)N(c1cc(F)ccc1F)S(=O)(=O)c1ccc(Cl)cc1,"inconclusive: 26.1 µM [cytotoxic, single point]"
7,O=c1[nH]nc(OCCCc2ccc(Cl)cc2)c(NCc2cccnc2)c1Br,"inconclusive: 14.7 µM [cytotoxic, partial curve]"
8,Cc1cnc(Nc2ccc(N3CCN(C)CC3)cc2)nc1Nc1cccc(S(=O)(=O)NC(C)(C)C)c1,active: 2.93 µM
9,COc1cc2c(cc1OC)[C@@H]1Cc3ccc(OC)c(OC)c3CN1CC2,"inconclusive: 0.928 µM [cytotoxic, full curve, poor fit]"
10,CC(C)(N)c1ccc(-c2nc3ccccc3nc2-c2ccccc2)cc1,active: 0.369 µM
11,Nc1nc(N)nc(-c2cc(Cl)ccc2Cl)n1,inactive
12,COc1ccc(C(C)=O)c(O)c1,inactive
13,O=S(=O)(O)CCS,"inconclusive: 32.9 µM [cytotoxic, single point]"
14,CS(=O)(=O)Nc1ccc([N+](=O)[O-])cc1Oc1ccccc1,inactive
15,CC(C)(C)c1cc(C(C)(C)C)c(NC(=O)c2c[nH]c3ccccc3c2=O)cc1O,"inconclusive: 36.9 µM [cytotoxic, single point]"

# Test: qHTS of pediatric cancer cell lines to identify multiple opportunities for drug repurposing: Confirmatory screen for SK-N-SH cells (AID 1347129);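 note: cells exposed to compound for 48 h before viability read; nearly all actives have a fitted effect of over 60% in size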
# Settings: SK-N-SH neuroblastoma cell viability; series mostly up to 46.1 µM
# Summary of the method: as §1
row,Compound,Potency
1,COc1cc2c(cc1OC)[C@@H]1C(=O)c3ccc4c(c3O[C@@H]1CO2)C=CC(C)(C)O4,"inconclusive: 5.9 µM [cytotoxic, full curve]"
2,O=C(CC12CC3CC(CC(C3)C1)C2)Nc1cccc2nc(NCCNCCO)ccc12,inactive
3,N#Cc1c(NC(=O)c2cccc3ccccc23)sc2c1CCCC2,"inconclusive: 0.332 µM [cytotoxic, full curve]"
4,C[C@H](c1ccc(F)cc1CCCC(=O)O)N(c1cc(F)ccc1F)S(=O)(=O)c1ccc(Cl)cc1,inactive
5,O=c1[nH]nc(OCCCc2ccc(Cl)cc2)c(NCc2cccnc2)c1Br,"inconclusive: 20.9 µM [cytotoxic, partial curve]"
6,CC(C)(N)c1ccc(-c2nc3ccccc3nc2-c2ccccc2)cc1,"inconclusive: 33.2 µM [cytotoxic, single point]"
7,CC(=O)O[C@H]1C(=O)[C@@]2(C)C([C@H](OC(=O)c3ccccc3)[C@]3(O)C[C@H](OC(=O)[C@H](O)[C@@H](NC(=O)c4ccccc4)c4ccccc4)C(C)=C1C3(C)C)[C@]1(OC(C)=O)CO[C@@H]1C[C@@H]2O (some centres undefined),"inconclusive: 0.118 µM [cytotoxic, full curve]"
8,Nc1nc(N)nc(-c2cc(Cl)ccc2Cl)n1,inactive
9,COc1cc(CNC(=O)CCCCC=CC(C)C)ccc1O,"inconclusive: 4.69 µM [cytotoxic, partial curve]"
10,CS(=O)(=O)Nc1ccc([N+](=O)[O-])cc1Oc1ccccc1,"inconclusive: 0.59 µM [cytotoxic, full curve]"
11,CC(C)(C)c1cc(C(C)(C)C)c(NC(=O)c2c[nH]c3ccccc3c2=O)cc1O,"inconclusive: 33.2 µM [cytotoxic, single point]"
